# Measurements reported in the supplement of paper PMC4635364.
# Counter-ions that a name gives are not always drawn. The list shows a part of the results. Repeats in this data set agree poorly, so a single value says little.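 Human fetal ventral-midbrain neural progenitor line ReNCell VM, differentiated without mitogens. Images stained for doublecortin (early neurons) or tyrosine hydroxylase (dopaminergic neurons) were scored by blinded raters against untreated wells (0 = no change). Repeats and both raters were averaged, and compounds averaging 2 or higher were picked as hits for retesting.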
# System: ReNCell VM
# Experiment: dopaminergic neuron differentiation score (TH+ cell fraction vs untreated, manual image score) (score (0 to 3)); higher = more TH+ dopaminergic neuron differentiation
# Conditions: library: Tocriscreen; 2 uM; 4 weeks; BDNF 10 ng/ml + GDNF 10 ng/ml
row,SMILES,dopaminergic neuron differentiation score
1,N#C/C(=C\c1ccc(O)c(O)c1)C(=O)NCc1ccccc1,active: 3
2,Oc1cc2c(cc1O)C(c1ccccc1)CNCC2 (stereo not given),inactive: 0
3,Cc1cc(C)c(S(=O)(=O)Nc2cccc(C(F)(F)F)c2)c(C)c1,inactive: 0
4,COc1ccc(CCN(C)CCCN2CCc3cc(OC)c(OC)cc3CC2=O)cc1OC [Zatebradine hydrochloride],inactive: 0
5,COc1cc(Br)c(S(=O)(=O)Nc2ccc(Cl)c(O[C@@H]3CCN(C)C3)c2)cc1OC,inactive: 0
